Experimental data: PubChem BioAssay AID1259405 (NCATS, 2018)

Assay: 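Knock-downs that lift recombinant protein yield in hamster ovary cells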 (primary screen)
System: Chinese hamster CHO-K1 ovary cells with stable secreted eGFP expression
Reagent: single siRNA against mouse genes, 0.8 pmol siRNA per well (2 µl of 400 nM stock)
Duration: 3 days
Measured: 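Percent of the per-plate non-targeting control median for intracellular GFP per well by laser scanning cytometry and for cell viability by ATP luminescence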
Scale: GFP, % of control: higher = more GFP per well, higher productivity; viability (ATP), % of control: higher = more viable cells (more ATP)
Call rule: 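a knock-down is called active if GFP reaches 120% or more of non-targeting control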
Here is an unselected part of about 50,000 reagents. About 4,000 of them (8%) count as active. 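Mouse siRNA library applied to hamster cells; one well for each siRNA.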

gene	PubChem SID	GFP, % of control	viability (ATP), % of control	call
Or6c65	SID363554761	51.6	45.4	inactive
Or6c65	SID363568208	70.5	71.2	inactive
Or6c65	SID363586267	67.1	48.1	inactive
Sbp	SID363555036	59.9	80.2	inactive
Sbp	SID363568483	55.2	77.2	inactive
Sbp	SID363586542	59.4	67.8	inactive
Coro1b	SID363541089	92.6	80.7	inactive
Coro1b	SID363555716	63.2	78.6	inactive
Coro1b	SID363566005	59.3	77.7	inactive
Ppp6r2	SID363547856	86.9	35.5	inactive
Ppp6r2	SID363558625	57	76	inactive
Ppp6r2	SID363560383	110	103	inactive
Bysl	SID363547051	83.1	58.5	inactive
Bysl	SID363549863	70	78.7	inactive
Bysl	SID363587917	83	105	inactive
Fgf4	SID363541259	69.8	88.9	inactive
Fgf4	SID363555886	60.6	92.7	inactive
Fgf4	SID363566175	73	48	inactive
Perm1	SID363543674	62	78.8	inactive
Perm1	SID363553167	61.8	108	inactive
Perm1	SID363559015	64.4	82.5	inactive
Adprs	SID363545704	82.7	68.4	inactive
Adprs	SID363549217	56.7	85.8	inactive
Adprs	SID363563023	57.7	75.2	inactive
1110004F10Rik	SID363540525	80.2	59.3	inactive
1110004F10Rik	SID363542976	57.6	69.1	inactive
1110004F10Rik	SID363552469	73.5	48.8	inactive
Cyp2g1	SID363544031	62.7	57	inactive
Cyp2g1	SID363550359	96.1	45.9	inactive
Cyp2g1	SID363556908	102	80.2	inactive
Eid3	SID363543606	73.2	62.2	inactive
Eid3	SID363553099	117	90.5	inactive
Eid3	SID363558947	82.4	99.7	inactive
Kcnj12	SID363574832	99.3	98	inactive
Kcnj12	SID363575888	68.5	89.7	inactive
Kcnj12	SID363580464	71	61.2	inactive

4 entries already listed, sorted by “GFP, % of control”, lowest first:
gene	PubChem SID	GFP, % of control	viability (ATP), % of control	call
Ppp6r2	SID363558625	57	76	inactive
Coro1b	SID363566005	59.3	77.7	inactive
Coro1b	SID363555716	63.2	78.6	inactive
Ppp6r2	SID363547856	86.9	35.5	inactive
